Reference: article doi:10.1101/256560
No constants are given. Whether binding was seen depends on the method and setting. Some binding calls cover weakened binding; strength is not graded here.

Target: T1, EzrA^Spn (S. pneumoniae) (UniProt Q8DQE5)
T1 sequence: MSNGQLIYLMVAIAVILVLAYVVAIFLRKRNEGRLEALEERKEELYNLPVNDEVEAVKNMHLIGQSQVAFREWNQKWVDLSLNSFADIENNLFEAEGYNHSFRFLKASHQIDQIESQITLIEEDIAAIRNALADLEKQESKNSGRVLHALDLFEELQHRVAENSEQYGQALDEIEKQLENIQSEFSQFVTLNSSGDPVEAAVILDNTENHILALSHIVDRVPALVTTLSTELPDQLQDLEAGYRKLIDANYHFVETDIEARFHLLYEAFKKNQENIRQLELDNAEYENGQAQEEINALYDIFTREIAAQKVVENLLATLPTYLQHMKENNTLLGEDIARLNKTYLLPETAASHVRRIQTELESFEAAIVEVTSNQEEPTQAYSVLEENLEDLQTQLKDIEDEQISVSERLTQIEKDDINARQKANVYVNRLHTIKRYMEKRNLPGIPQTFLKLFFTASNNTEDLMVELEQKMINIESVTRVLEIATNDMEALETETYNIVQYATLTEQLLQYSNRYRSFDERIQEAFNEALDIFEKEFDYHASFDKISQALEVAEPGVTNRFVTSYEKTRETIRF
Assay: two-hybrid

CozE^Spn (from UniProt A0ACD7PR02 1-369)
binding: binds
